Data as given in patent US20230357411A1.
Results are given in words; binding and its absence hold for the method and conditions named. Some binding calls cover weakened binding; strength is not graded here.

Amino acid sequences for entries named in this document (tags omitted). Residues count along the entry.
UniProt Q3UFB7, residues 34-799: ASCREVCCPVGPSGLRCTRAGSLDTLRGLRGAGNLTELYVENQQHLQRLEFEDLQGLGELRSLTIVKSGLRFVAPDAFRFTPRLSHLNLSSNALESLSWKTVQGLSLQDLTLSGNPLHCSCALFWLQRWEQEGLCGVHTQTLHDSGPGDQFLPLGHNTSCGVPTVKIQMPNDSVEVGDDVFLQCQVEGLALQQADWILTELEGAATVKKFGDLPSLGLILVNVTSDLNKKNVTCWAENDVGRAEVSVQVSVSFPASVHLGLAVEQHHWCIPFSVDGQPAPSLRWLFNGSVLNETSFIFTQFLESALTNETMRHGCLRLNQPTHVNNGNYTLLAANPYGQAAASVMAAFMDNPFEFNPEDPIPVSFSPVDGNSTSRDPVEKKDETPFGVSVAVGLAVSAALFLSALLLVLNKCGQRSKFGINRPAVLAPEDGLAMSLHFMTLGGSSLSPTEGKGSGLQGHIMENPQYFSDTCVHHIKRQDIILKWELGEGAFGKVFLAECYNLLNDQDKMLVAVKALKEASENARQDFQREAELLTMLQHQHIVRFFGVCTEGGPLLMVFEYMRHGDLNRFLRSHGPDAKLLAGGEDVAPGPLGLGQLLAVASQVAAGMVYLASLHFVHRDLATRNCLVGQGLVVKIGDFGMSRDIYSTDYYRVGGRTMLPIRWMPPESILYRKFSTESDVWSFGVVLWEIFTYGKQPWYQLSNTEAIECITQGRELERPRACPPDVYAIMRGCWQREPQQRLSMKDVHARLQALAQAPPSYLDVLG
UniProt P04629, residues 33-796: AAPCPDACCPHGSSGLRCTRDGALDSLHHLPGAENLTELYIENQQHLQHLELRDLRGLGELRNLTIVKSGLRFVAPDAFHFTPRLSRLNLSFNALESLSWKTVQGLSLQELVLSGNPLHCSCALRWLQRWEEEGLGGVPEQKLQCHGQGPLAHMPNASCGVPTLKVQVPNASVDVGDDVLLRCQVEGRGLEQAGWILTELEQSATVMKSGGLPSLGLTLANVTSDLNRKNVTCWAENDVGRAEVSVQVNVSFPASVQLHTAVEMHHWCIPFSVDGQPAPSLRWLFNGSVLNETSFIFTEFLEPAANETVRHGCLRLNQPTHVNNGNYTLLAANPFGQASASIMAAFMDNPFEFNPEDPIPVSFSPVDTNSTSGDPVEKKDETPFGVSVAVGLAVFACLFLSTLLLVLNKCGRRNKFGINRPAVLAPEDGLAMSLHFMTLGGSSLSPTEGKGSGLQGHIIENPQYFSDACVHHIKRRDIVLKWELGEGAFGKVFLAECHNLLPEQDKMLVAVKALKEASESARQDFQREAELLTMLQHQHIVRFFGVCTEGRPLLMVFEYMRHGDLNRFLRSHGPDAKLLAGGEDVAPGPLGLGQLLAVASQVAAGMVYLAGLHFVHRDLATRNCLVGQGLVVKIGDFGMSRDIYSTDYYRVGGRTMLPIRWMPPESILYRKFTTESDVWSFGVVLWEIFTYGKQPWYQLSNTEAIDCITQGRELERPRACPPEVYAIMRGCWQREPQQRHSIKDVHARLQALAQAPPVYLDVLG

Assays:
[1] = target: Mouse-TrKA on the surface of HEK293T-MouseTrKA cells (mouse) (UniProt Q3UFB7); assay: flow cytometry on HEK293T-MouseTrkA cells
[2] = target: Human-TrKA receptor on the surface of HEK293T-HumanTrKA cells (human) (UniProt P04629); assay: flow cytometry on HEK293T-HumanTrkA cells

Row | binding [1] | binding [2] | Binder
1 | binds | binds | humanized anti-TrkA monoclonal antibody H3L1-IgG4 (antibody, V domains shown) VH: EVQLLESGGGLVQPGGSLKLSCKASGYAFTNYWLGWMKQRPGHGLEWIGDFYPRTGNTFYNENFKGQVTMSVDKSITTAYLQWNSLKASDTAMYYCARAGTGFDYWGQGTTLTVSS VL: EIVMTQSPATLSLSVGERVTLSCKASENVGGYVSWYQQKPDQSPKLLIYGASSRHTGVPDRFTGSGSETDFTLTISSVQAEDLAAYHCGQNYIYPFTFGGGTKLEIKR
2 | binds | binds | humanized anti-TrkA monoclonal antibody H3L2-IgG4 (antibody, V domains shown) VH: EVQLLESGGGLVQPGGSLKLSCKASGYAFTNYWLGWMKQRPGHGLEWIGDFYPRTGNTFYNENFKGQVTMSVDKSITTAYLQWNSLKASDTAMYYCARAGTGFDYWGQGTTLTVSS VL: EIVMTQSPATLSLSVGERVTLSCKASENVGGYVSWYQQKPDQSPKLLIYGASSRATGVPDRFTGSGSETDFTLTISSVQAEDLAAYHCGQNYIYPFTFGGGTKLEIKR
3 | binds | – | humanized anti-TrkA monoclonal antibody H1L1-IgG4 (antibody) heavy: EVQLLESGGGLVQPGGSLKLSCKASGYAFTNYWLGWMKQRPGHGLEWIGDFYPRTGNTFYNENFKGKVTLTADKSSNTAYMQLSSLTSEDSAVYLCARAGTGFDYWGQGTTLTVSSASTKGPSVFPLAPCSRSTSESTAALGCLVKDYFPEPVTVSWNSGALTSGVHTFPAVLQSSGLYSLSSVVTVPSSSLGTKTYTCNVDHKPSNTKVDKRVESKYGPPCPPCPAPEAAGGPSVFLFPPKPKDTLMISRTPEVTCVVVDVSQEDPEVQFNWYVDGVEVHNAKTKPREEQFNSTYRVVSVLTVLHQDWLNGKEYKCKVSNKGLPSSIEKTISKAKGQPREPQVYTLPPSQEEMTKNQVSLTCLVKGFYPSDIAVEWESNGQPENNYKTTPPVLDSDGSFFLYSKLTVDKSRWQEGNVFSCSVMHEALHNHYTQKSLSLSLG light: EIVMTQSPATLSLSVGERVTLSCKASENVGGYVSWYQQKPDQSPKLLIYGASSRHTGVPDRFTGSGSETDFTLTISSVQAEDLAAYHCGQNYIYPFTFGGGTKLEIKRTVAAPSVFIFPPSDEQLKSGTASVVCLLNNFYPREAKVQWKVDNALQSGNSQESVTEQDSKDSTYSLSSTLTLSKADYEKHKVYACEVTHQGLSSPVTKSFNRGEC
4 | binds | binds | human-mouse chimeric anti-TrkA monoclonal antibody 23E12 (H0L0-IgG4) (antibody) heavy: QVQLQQSGAELVRPGTSVKISCKASGYAFTNYWLGWMKQRPGHGLEWIGDFYPRTGNTFYNENFKGKVTLTADKSSNTAYMQLSSLTSEDSAVYLCARAGTGFDYWGQGTTLTVSSASTKGPSVFPLAPCSRSTSESTAALGCLVKDYFPEPVTVSWNSGALTSGVHTFPAVLQSSGLYSLSSVVTVPSSSLGTKTYTCNVDHKPSNTKVDKRVESKYGPPCPPCPAPEAAGGPSVFLFPPKPKDTLMISRTPEVTCVVVDVSQEDPEVQFNWYVDGVEVHNAKTKPREEQFNSTYRVVSVLTVLHQDWLNGKEYKCKVSNKGLPSSIEKTISKAKGQPREPQVYTLPPSQEEMTKNQVSLTCLVKGFYPSDIAVEWESNGQPENNYKTTPPVLDSDGSFFLYSKLTVDKSRWQEGNVFSCSVMHEALHNHYTQKSLSLSLG light: SIVMTQSPKSMSMSVGERVTLSCKASENVGGYVSWYQQKPDQSPKLLIYGASSRHTGVPDRFTGSGSETDFTLTISSVQAEDLAAYHCGQNYIYPFTFGGGTKLEIKRTVAAPSVFIFPPSDEQLKSGTASVVCLLNNFYPREAKVQWKVDNALQSGNSQESVTEQDSKDSTYSLSSTLTLSKADYEKHKVYACEVTHQGLSSPVTKSFNRGEC
